# Experimental data as given in paper PMC5996148.
# Several values for one entry are separate records, joined by “and”; a condition that tells them apart may be missing. Equal values may be shown once. This is one part of the list.
# Key:
# Experiment in all cases: protein microarray (ProtoArray v5.0), streptavidin-Alexa Fluor 647
# Settings in all cases: 3'-biotin; 20 mM Tris (pH 7.5), 5 mM MgCl2, 100 mM KCl, 0.1% Tween-20, A/T-rich and random oligonucleotide blockers; temperature not stated; high values mean tight binding
# PTPN2 (human) = test system: PTPN2 (human)
# PTPN5 (human) = test system: PTPN5 (human)
# PTPN7 (human) = test system: PTPN7 (human)
# PTPRE (human) = test system: PTPRE (human)
# PTPRO (human) = test system: PTPRO (human)
# PTS (human) = test system: PTS (human)
# PUM2 (human) = test system: PUM2 (human)
# PVALB (human) = test system: PVALB (human)
# PVRL3 (human) = test system: PVRL3 (human)
# PXN (human) = test system: PXN (human)
sequence,measurement,setting,value
GGGAGGCTGAGGCAGG [G4-1 biotinylated (PQS2)],binding signal,PTPN2 (human),-0.347 z-score
same,binding signal,PTPN5 (human),-0.339 z-score
same,binding signal,PTPN7 (human),-0.29 z-score
same,binding signal,PTPRE (human),-0.289 z-score
same,binding signal,PTPRO (human),-0.321 z-score
same,binding signal,PTS (human),-0.318 z-score
same,binding signal,PUM2 (human),-0.28 z-score
same,binding signal,PVALB (human),-0.282 z-score
same,binding signal,PVRL3 (human),-0.331 z-score
same,binding signal,PXN (human),-0.303 z-score and -0.348 z-score

# Part of the list above in a different format.
sequence | measurement | setting | value
GGGAGGCTGAGGCAGG [G4-1 biotinylated (PQS2)] | binding signal | PTPN5 (human) | -0.339 z-score
same | binding signal | PVALB (human) | -0.282 z-score
